# This is one part of the list. The main result of the screen is listed elsewhere. These columns were measured beside it and carry no call. The list favours compounds with an active or inconclusive main result. The note in brackets gives the kind of curve behind each potency; many fits are weak.
# Assay: qHTS Assay to Find Inhibitors of Chronic Active B-Cell Receptor Signaling
# Details: ABC-DLBCL IkBa-CBG/CBR reporter, luminescence ratio (green luciferase fused to IkBa over red control in TMD8 lymphoma cells), 4 h
# Description: NIH Molecular Libraries Probe Production Network [MLPCN] NIH Chemical Genomics Center [NCGC] MLPCN Grant: 1 R03 DA031086-01A1 PI Name: Dr. R. Eric Davis NCGC Assay Overview: Diffuse large B-cell lymphoma (DLBCL) is the most common category of non-Hodgkin lymphoma, with ~20,000 new cases per year in the United States. DLBCL should be regarded as a collection of different neoplasms. Microarray gene expression analysis has defined two principal types of DLBCL, named for their similarity to normal B cell stages or activation states: a germinal center B-cell (GCB) type, and an activated B-cell (ABC) type. In ABC-DLBCL, a constitutive high-level activity of the NF-kappaB family of transcription factors has been observed (1) and NF-kappaB target genes are more highly expressed in ABC primary tumors than in GCB tumors. Functional studies have shown a constitutive high-level activity of the IkappaB (inhibitor of kappa-B) kinase (IKK) complex. […] Further analysis of DLBCL primary tumors for NF-kappaB target gene expression imply that although CARD11 is required for constitutive IKK activity in all ABC-DLBCL lines, mutations in CARD11 may be the root cause of IKK activation only in lines or tumors with such mutations. In other words, CARD11 mutations may explain NF-kappaB activation in only 10% of ABC-DLBCL cases. […] This process has been termed 'chronic active BCR signaling' (CABS). The goal of this screen is to find small-molecule inhibitors of the CABS pathway found in ABC-DLBCL lines using a cell-based assay that measures IkappaBalpa stability, which has already been extensively validated in the OCI-Ly3 line (PubChem AID:445; REF: 4). […] The assay uses green (CBG68) and red (CBR) emitting beetle luciferases [Chroma-GloTM developed by Promega Corp.] where the green luciferase is fused to IkappaBalpha and the red luciferase is present in its native state. Both luciferase genes are stably present in the TMD8 human ABC DLBCL cell line, but their expression is under the control of tetracycline-inducible promoters. Following the addition of doxycycline to induce expression of the luciferases, the green luminescence in control cultures rises only slowly because the CBG fusion partner IkappaBalpha is targeted by IKK activity for rapid degradation. In contrast, green luminescence rises rapidly in the presence of proteasome inhibitors or IKK inhibitors. The rise in red luminescence of CBR is not affected by proteasome or IKK inhibitors, and serves as normalization for cell number and nonspecific effects. Compounds were screened as a concentration-titration series that ranged from 46 uM to 3 nM.
# NCGC Assay Protocol Summary: Cells were seeded in 1536-well plates at 5000 cells/4uL in IMDM medium containing 0.5% FBS, w/o phenol red, 1% penicillin/streptomycin. Then, 23 nL of compounds or DMSO were delivered to each well using a pin tool. One uL 20ng/ml doxycycline was then dispensed into white solid 1536-well plates and the plates were incubated at 37C/5% C02 in a cell incubator for 4 hrs. Then 4 uL luminescent substrate mix (in-house prepared: 150 mM Tris-Cl, pH 7.6, 3 mM MgCl2, 1% Triton X-100, 5 mM DTT, 0.2 mM CoA, 0.15 mM ATP, 5 mM D-luciferin, final concentrations) was added to each well. The plate was incubated at r.t. for 10-15 min. The plates were measured on a ViewLux plate reader for green luminescence (540/20 nm filter) and red luminescence (618/8 nm filter). The green and red luminescent signals were corrected for red and green luminescence filter overlap using previously determined filter calibration constants (determined using the procedure outlined in the Promega Technical Manual; REF 4). The %Activity was determined from the ratio of corrected green/red luminescent values. MG132 were used as control. […] Red luminescent %Activity was normalized to the difference between red luminesence in basal cells (0%Activity) and zero luminescence (-100% Activity). […]
# [1] = measured here: IkBa-CBG green luminescence
# [2] = measured here: CBR red luminescence, cell number
SMILES,AC50 [1],AC50 [2]
Cc1occc1C(=O)N/N=C/c1c(O)ccc2ccccc12,"3.98 µM [falling, single point]",–
CCn1c(SCC(=O)Nc2nc(-c3ccccc3)cs2)nnc1-c1ccccc1O,–,"35.5 µM [falling, single point]"
C/C(=N\NC(=O)c1cccs1)c1ccc2c(c1)OCO2,–,"20 µM [falling, single point]"
Cc1ccc2c(c1C)NC(=O)CC(c1ccccc1O)=N2,–,"35.5 µM [rising, single point]"
CS(=O)(=O)N1CCN(c2ccccc2NC(=O)c2cc3ccccc3o2)CC1,"5.01 µM [rising, partial curve, poor fit]","7.08 µM [falling, partial curve]"
COC(=O)CSc1nnc(CNc2ccc(OC)cc2)n1C,–,"35.5 µM [falling, single point]"
CN(Cc1nc(-c2ccccc2)no1)C1CCOCC1,–,"1.12 µM [rising, full curve, poor fit]"
CC(OC(=O)c1ccc(O)cc1)C(=O)Nc1nc(-c2ccccc2)cs1 (stereo not given),–,"8.2 µM [falling, partial curve]"
CCOc1ccc2nc(NS(=O)(=O)c3ccc(NC(C)=O)cc3)sc2c1,–,"6.51 µM [falling, single point]"
Oc1oc(-c2ccccc2Br)nc1C=Nc1ccc(Br)cn1,–,"3.55 µM [falling, partial curve, poor fit]"
O=C(Nc1ncc2c(n1)-c1ccccc1OC2)c1ccccc1Cl,–,"1.78 µM [falling, full curve, poor fit]"
Cc1ccc(C(=O)N2CCCC2)cc1Br,–,"14.6 µM [rising, partial curve]"
O=C1Cc2ccccc2Sc2ccc(Cl)cc21,–,"17.8 µM [rising, single point]"
CCC(C)c1ccc(NC(=S)N2CCN(c3ccccn3)CC2)cc1 (stereo not given),–,"10 µM [falling, partial curve, poor fit]"
O=[N+]([O-])c1cccc(NC(=S)N2CCN(c3ccccn3)CC2)c1,–,"3.55 µM [rising, partial curve, poor fit]"
Cc1ccc(C)c(C(=O)CSc2nc(N)cc(=O)[nH]2)c1,–,"31.6 µM [rising, single point]"
Cc1nnc(NC(=O)CCC(=O)N2CCN(CCOc3cccc4ccccc34)CC2)s1,–,"3.55 µM [rising, single point]"
CC(NC(=O)COC(=O)c1cn(-c2ccccc2)nc1-c1cccs1)c1ccccc1 (stereo not given),–,"20.6 µM [falling, single point]"
CCc1ccc(NC2=NC(C(=O)c3ccccc3)CC(=O)N2)cc1 (stereo not given),–,"29.1 µM [rising, single point]"
O=C(O)CCN=Cc1c(O)c2ccccc2oc1=O,–,"6.31 µM [falling, partial curve]"
N#CCSc1nnc2ccc3ccccc3n12,–,"3.26 µM [falling, single point]"
Clc1ccc(-c2nnc(N3CCCC3)nn2)cc1,–,"1.26 µM [rising, full curve, poor fit]"

SMILES,AC50 [1],AC50 [2]
CCCCN(CC)CCNC(=O)c1cc2c(=O)n(C)c3ccccc3c2n1C,–,"8.2 µM [falling, partial curve]"
CC(C)(C)NC(=S)N/N=C/c1cc(Br)c(O)c(Br)c1,"35.5 µM [falling, single point]",–
CN(C)c1ccc(C(=S)NC2CCCCC2)cc1,–,"2.51 µM [rising, partial curve]"
COc1ccc2nc(SCc3cccc(C)c3)nc(C)c2c1,–,"7.31 µM [rising, partial curve]"
COc1ccc(C(=O)Nc2nc3cc4c(cc3s2)OCCO4)c(OC)c1,–,"2.51 µM [rising, partial curve, poor fit]"
Cc1ccc(C(=O)Nc2ccc(Cl)cc2C)c(Cl)c1,–,"11.2 µM [rising, partial curve, poor fit]"
COc1ccc(/C=C2\SC(c3ccc(C)cc3)=NC2=O)cc1OC,–,"29.1 µM [falling, single point]"
CCOC(=O)NC(=O)/C(C#N)=C\Nc1ccc(Cl)cc1Cl,–,"0.355 µM [rising, full curve, poor fit]"
CC(C)C(c1nnnn1Cc1ccccc1)N(Cc1ccco1)Cc1cccs1 (stereo not given),–,"15.8 µM [falling, single point]"
O=C(CN1C=NS(=O)(=O)c2ccccc21)Nc1ccccc1F,–,"0.708 µM [falling, full curve]"
COc1ccccc1Oc1ccc2c(c1)C(=O)N(c1ccc(C)cc1)C2=O,–,"3.55 µM [falling, single point]"
Nc1cccc(C(=O)Nc2ccc(N)cc2Cl)c1,–,"10.3 µM [falling, single point]"
Cc1cccc(Nc2nc(-c3ccccn3)cs2)n1,–,"2.59 µM [falling, full curve]"
C=CCN(CC=C)C(=O)Nc1cc(OC)ccc1OC,–,"5.62 µM [rising, single point]"
CSc1nc(N)n(-c2cc(C(F)(F)F)ccn2)n1,–,"0.316 µM [falling, full curve, poor fit]"
O=C(CSc1nncn1-c1ccccc1)Nc1cccc(S(=O)(=O)N2CCCCC2)c1,–,"3.26 µM [falling, single point]"
COc1cccc(C2c3c(-c4cc(Cl)c(C)cc4O)n[nH]c3C(=O)N2Cc2cccnc2)c1 (stereo not given),–,"29.1 µM [falling, single point]"
CCOC(=O)c1cc(NC(=O)c2cccs2)ccc1N1CCOCC1,–,"11.2 µM [falling, partial curve, poor fit]"
COC(=O)c1cc(OC)c(OC)cc1NC(=O)c1csc(C)c1,–,"2.82 µM [rising, full curve, poor fit]"
Cc1ccsc1/C=N/NC(=O)c1ccccn1,–,"13 µM [falling, partial curve]"
CC(C)CN(C(=O)COC(=O)c1ccc2c(c1)NC(=O)CS2)C1CCS(=O)(=O)C1 (stereo not given),–,"25.1 µM [falling, single point]"
N#CC(C#N)=C1C=C2C=C(N3CCCCCC3)CCC2CC1 (stereo not given),–,"10.3 µM [falling, single point]"

# Part of the list above in order of length of the SMILES, rising.
SMILES,AC50 [1],AC50 [2]
Cc1cccc(Nc2nc(-c3ccccn3)cs2)n1,–,"2.59 µM [falling, full curve]"
Oc1oc(-c2ccccc2Br)nc1C=Nc1ccc(Br)cn1,–,"3.55 µM [falling, partial curve, poor fit]"
CC(C)CN(C(=O)COC(=O)c1ccc2c(c1)NC(=O)CS2)C1CCS(=O)(=O)C1 (stereo not given),–,"25.1 µM [falling, single point]"
